Source: patent publication US20020160055A1, “Methods for treating human immunodeficiency virus infections with gallium compositions” (priority 2000, published 2002)
For at least one compound, name, drawing or mass did not settle the structure.

Test system: HIV-1
Assay: Anti-HIV-1 activity of nucleoside analogs in combination with gallium nitrate (p24 antigen, PBMC's)
Type: cell-based

SMILES	effect of coadministration with Ga on subinhibitory concentrations of nucleoside analogs
Nc1ccn([C@H]2CC[C@@H](CO)O2)c(=O)n1 [ddC, dideoxycytidine]	rendered inhibitory
O=c1[nH]cnc2c1ncn2[C@H]1CC[C@@H](CO)O1 [ddI, dideoxyinosine]	rendered inhibitory
